Values of other authors, collected in US20100136106A1, “Modified Release Famciclovir Compositions” (priority 2005, published 2010).
Like-named read-outs stand apart in the source and are kept apart here.

COC(=O)C(c1ccccc1)C1CCCCN1 (stereo not drawn) [methylphenidate, α-phenyl-2-piperidine acetic acid methyl ester]
persistence of drug effects (oral administration of conventional IR tablets): 3 to 6 h
persistence of drug effects (oral administration of extended release formulations): up to 8 hours
